Some entries share one result that the patent states for a list of compounds.
Assay: Zeta potential (Brookhaven ZetaPALS)
Assay type: physicochemical
Details: pH range of 4-10

With `CC1(C)C(/C=C/C=C/C=C/C=C2\N(CCCCS(=O)(=O)O)c3ccc4ccccc4c3C2(C)C)=[N+](CCCCS(=O)(=O)[O-])c2ccc3ccccc3c21` [ICG, indocyanine green] as the compound, how does the zeta potentials read?
Its zeta potentials is −46 to −61 mV.

Reference: patent US20210154335A1, “DYE AGGREGATES-CONTAINING NANOPARTICLES AND USES THEREOF” (BOARD OF REGENTS, THE UNIVERSITY OF TEXAS SYSTEM, priority 2019, published 2021)
